Measurements: patent US20250060373A1, “NOVEL ASSAY AND NOVEL METHODS OF TREATING HUTCHINSON-GILFORD PROGERIA SYNDROME” (The Progeria Research Foundation, priority 2021, published 2025)

Test system: progerin
Assay: Lonafarnib Interference Assay (exogenous lonafarnib spiked into HGPS plasma, SMC Progerin Immunoassay)
Design: species or system human
Details: HGPS plasma spiked with 7.92 μg/mL lonafarnib in DMSO (3×Cmax) vs DMSO control; p=0.198

NC(=O)N1CCC(CC(=O)N2CCC([C@H]3c4ncc(Br)cc4CCc4cc(Cl)cc(Br)c43)CC2)CC1 [lonafarnib]
Effect of lonafarnib spike on mean progerin reading: unaffected
